{"source": "PubChem BioAssay AID1259308 | NCATS, 2017", "aim": "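Knock-downs that increase output of a recombinant reporter protein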 (primary screen)", "cell system": "human HEK293 embryonic kidney cells stably expressing firefly luciferase (HEK-CMV-Luc2-Hygro)", "reagents": "single siRNA against human genes, 0.8 pmol siRNA per well", "time to read-out": "72 h", "measured": "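Luciferase light (ONE-Glo) measured on one replicate plate set and viability (CellTiter-Glo) on the other, scaled to a negative control siRNA, with robust z-scores and luciferase per cell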", "direction": "total luciferase, z-score and total luciferase, % of control: higher = more reporter protein produced", "hit rule": "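Active when the median/MAD z-score for overall luciferase is greater than 3; a gene was taken forward for validation with new siRNAs if at least two of its three siRNAs passed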", "calls": "active = raised luciferase; inactive = no rise", "note": "The whole screen tested about 59,000 reagents; shown is a part drawn at random. In the full data, about 1,510 (2.6%) got an active call. 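Calls use total luciferase alone and ignore viability, so some active siRNAs may act by altering cell number.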 Further read-outs or replicates are left out here."}
{"Gene":"TOB2","PubChem SID":"SID160729176","total luciferase, z-score":0.196,"total luciferase, % of control":85.8,"call":"inactive"}
{"Gene":"TOB2","PubChem SID":"SID160729177","total luciferase, z-score":-2.06,"total luciferase, % of control":41,"call":"inactive"}
{"Gene":"TOB2","PubChem SID":"SID160729178","total luciferase, z-score":-0.612,"total luciferase, % of control":69.7,"call":"inactive"}
{"Gene":"COL4A1","PubChem SID":"SID160745797","total luciferase, z-score":0.998,"total luciferase, % of control":102,"call":"inactive"}
{"Gene":"COL4A1","PubChem SID":"SID160745808","total luciferase, z-score":0.833,"total luciferase, % of control":98.4,"call":"inactive"}
{"Gene":"COL4A1","PubChem SID":"SID160745819","total luciferase, z-score":-0.741,"total luciferase, % of control":67.1,"call":"inactive"}
{"Gene":"LRCH1","PubChem SID":"SID160735553","total luciferase, z-score":-0.0706,"total luciferase, % of control":80.5,"call":"inactive"}
{"Gene":"LRCH1","PubChem SID":"SID160735554","total luciferase, z-score":0.985,"total luciferase, % of control":101,"call":"inactive"}
{"Gene":"LRCH1","PubChem SID":"SID160735555","total luciferase, z-score":0.0772,"total luciferase, % of control":83.4,"call":"inactive"}
{"Gene":"FGF13","PubChem SID":"SID160730800","total luciferase, z-score":2.25,"total luciferase, % of control":127,"call":"inactive"}
{"Gene":"FGF13","PubChem SID":"SID160765315","total luciferase, z-score":2.88,"total luciferase, % of control":139,"call":"inactive"}
{"Gene":"FGF13","PubChem SID":"SID160765326","total luciferase, z-score":-1.26,"total luciferase, % of control":56.9,"call":"inactive"}
{"Gene":"FGF13","PubChem SID":"SID160773795","total luciferase, z-score":0.159,"total luciferase, % of control":85,"call":"inactive"}
{"Gene":"FGF13","PubChem SID":"SID160773796","total luciferase, z-score":-0.0712,"total luciferase, % of control":80.5,"call":"inactive"}
{"Gene":"FGF13","PubChem SID":"SID160773797","total luciferase, z-score":1.71,"total luciferase, % of control":116,"call":"inactive"}
{"Gene":"CD200R1","PubChem SID":"SID160757064","total luciferase, z-score":-0.399,"total luciferase, % of control":73.9,"call":"inactive"}
{"Gene":"CD200R1","PubChem SID":"SID160757065","total luciferase, z-score":-0.143,"total luciferase, % of control":79,"call":"inactive"}
{"Gene":"CD200R1","PubChem SID":"SID160757066","total luciferase, z-score":0.71,"total luciferase, % of control":96,"call":"inactive"}
{"Gene":"LTV1","PubChem SID":"SID160753011","total luciferase, z-score":-1.04,"total luciferase, % of control":61.3,"call":"inactive"}
{"Gene":"LTV1","PubChem SID":"SID160753012","total luciferase, z-score":-0.315,"total luciferase, % of control":75.6,"call":"inactive"}
{"Gene":"LTV1","PubChem SID":"SID160753013","total luciferase, z-score":-0.85,"total luciferase, % of control":65,"call":"inactive"}

As entered above.
LRCH1 [SID160735555], call → inactive
Under “call”, FGF13 [SID160765326] is entered as inactive

Next entries follow:
{"Gene":"LZTS2","PubChem SID":"SID160752261","total luciferase, z-score":0.046,"total luciferase, % of control":82.8,"call":"inactive"}
{"Gene":"LZTS2","PubChem SID":"SID160752262","total luciferase, z-score":-1.26,"total luciferase, % of control":56.9,"call":"inactive"}
{"Gene":"LZTS2","PubChem SID":"SID160752263","total luciferase, z-score":1.34,"total luciferase, % of control":108,"call":"inactive"}
{"Gene":"GAPVD1","PubChem SID":"SID160737669","total luciferase, z-score":-2.5,"total luciferase, % of control":32.2,"call":"inactive"}
{"Gene":"GAPVD1","PubChem SID":"SID160737670","total luciferase, z-score":-0.187,"total luciferase, % of control":78.2,"call":"inactive"}
{"Gene":"GAPVD1","PubChem SID":"SID160737671","total luciferase, z-score":0.12,"total luciferase, % of control":84.3,"call":"inactive"}
{"Gene":"ECD","PubChem SID":"SID160730475","total luciferase, z-score":0.919,"total luciferase, % of control":100,"call":"inactive"}
{"Gene":"ECD","PubChem SID":"SID160730485","total luciferase, z-score":0.314,"total luciferase, % of control":88.1,"call":"inactive"}
{"Gene":"ECD","PubChem SID":"SID160730493","total luciferase, z-score":-0.703,"total luciferase, % of control":67.9,"call":"inactive"}
{"Gene":"TNFRSF1B","PubChem SID":"SID160718207","total luciferase, z-score":-0.381,"total luciferase, % of control":74.3,"call":"inactive"}
{"Gene":"TNFRSF1B","PubChem SID":"SID160718208","total luciferase, z-score":0.549,"total luciferase, % of control":92.8,"call":"inactive"}
{"Gene":"TNFRSF1B","PubChem SID":"SID160718210","total luciferase, z-score":0.93,"total luciferase, % of control":100,"call":"inactive"}
